Reference: paper PMC3923860
Results are given in words; binding and its absence hold for the method and conditions named. Some entries that bind do so weakly or less than the wild type.

By UniProt entry, the sequences of proteins in these tests, tags left out.
UniProt P07305: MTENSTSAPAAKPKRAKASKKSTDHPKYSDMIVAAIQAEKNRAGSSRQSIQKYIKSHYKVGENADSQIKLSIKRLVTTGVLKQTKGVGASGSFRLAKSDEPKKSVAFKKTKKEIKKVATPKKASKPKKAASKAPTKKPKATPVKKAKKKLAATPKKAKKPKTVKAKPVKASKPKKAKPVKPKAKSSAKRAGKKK

Molecular target: recombinant human histone H1^o (human) (UniProt P07305)
Experiment: cross-linking; dimethyl suberimidate (1/10 volume of 10 mg/ml) added to H1, HMGB1 or 1:1 H1/HMGB1 mixtures, proteins ~1 µM, 0.05-0.15 M NaCl, 10 mM sodium phosphate pH 7.5, 24°C, different times; 1 mM DTT for reduced HMGB1; SDS/15%-PAGE, silver stain; both purified

“recombinant human histone H1^o (from UniProt P07305 1-194) (other; other documents disagree on this pair)” was tested, and the binding was “binds”.
